# Earlier results as cited in patent publication US20210169854A1, “3'-[(2Z)-[1-(3,4-dimethylphenyl)-1,5-dihydro-3-methyl-5-oxo-4H-pyrazol-4-ylidene]hydrazino]-2'-hydroxy-[1,1'-biphenyl]-3-carboxylic acid and its salts formulation” (NOVARTIS AG, priority 2019, published 2021).
# At least one read-out could not be matched to a standard name with certainty.
# Settings: cited from earlier work
smiles,measurement,value
"CC1=NN(c2ccc(C)c(C)c2)C(=O)/C1=N\Nc1cccc(-c2cccc(C(=O)O)c2)c1O [eltrombopag, 3′-[(2Z)-[1-(3,4-dimethylphenyl)-1,5-dihydro-3-methyl-5-oxo-4H-pyrazol-4-ylidene]hydrazino]-2′-hydroxy-[1,1′-biphenyl]-3-carboxylic acid]",permeability (BCS context),medium to high permealble
